According to patent US5262421A, “Use of dicentrine and its derivatives for the treatment of hypertension, arrhythmia, thrombosis and atherosclerosis” (National Science Council, priority 1991, dated 1993):

System: α1-adrenoceptor (rat thoracic aortae)
Test: Schild analysis of α1-adrenoceptor antagonism: norepinephrine- and phenylephrine-induced contraction of rat thoracic aortae
Conditions: mean with 95% confidence limits

| Structure (SMILES) | slope (agonist phenylephrine) | slope (agonist norepinephrine) |
| --- | --- | --- |
| COC(=O)[C@@H]1[C@H]2C[C@H]3c4[nH]c5ccccc5c4CCN3C[C@@H]2CC[C@@H]1O [yohimbine, reference compound] | 0.84 (0.65-1.03) | – |
| Cc1ccc(N(CC2=NCCN2)c2cccc(O)c2)cc1 [phentolamine, reference compound] | 0.72 (0.71-1.20) | – |
| COc1cc2nc(N3CCN(C(=O)c4ccco4)CC3)nc(N)c2cc1OC [prazosin, reference compound] | 0.95 (0.94-1.24) | – |
| COc1cc2c(cc1OC)-c1c3c(cc4c1[C@H](C2)N(C)CC4)OCO3 [dicentrine] | 0.94 (0.95-1.32) | 0.94 (0.85-1.2) |
